According to article PMC3902906:

Target: CsoR (CsoRSl) wild type (Streptomyces lividans 1326) (UniProt D6EK73)
Experiment: ITC
Conditions: apo; ITC: 10 mM HEPES, 150 mM NaCl, pH 7.5, 25 C, 100 uM DNA into 10 uM CsoR tetramer; recombinant protein

Sequence | binding result
CGGACAAAAACCCCTGGTGGGTTTATATGG (double strand) [csoR-A swap] | no binding
CGGACAAATACCCCTGG (double strand) [csoR-half site] | no binding
CGGACAAATAGCCCTGGTGGCTATATATGG (double strand) [csoR-G swap] | no binding
CGGACAAATTCCCCTGGTGGGAATATATGG (double strand) [csoR-T swap] | no binding

Construct, isoform or probe ends are uncertain for at least one entry. A negative result means that nothing was seen under these conditions.
